Measurements: patent publication US9168295B2, “Vaccine peptide combinations” (Circassia Limited, priority 2007, dated 2015)
Part of at least one peptide drawing is inferred or uncertain, most often the ends. Some entries repeat one wording, which the source may state once for all of them. No end group written: not given here.

Assay: Homo-dimerisation of cysteine-containing peptides
Type: physicochemical
Settings: peptides with cysteine residues; previously shown

RILKNCVDAKMTEEDKE [MLA05, RILKNCVDAKMTEEDKE]
homo-dimerisation: capable of varying degrees of homo-dimerisation
